The assay concerns the target T1, RRS1^SH-AA-His-Flag (Arabidopsis thaliana) (UniProt C4B7M5).
T1 sequence: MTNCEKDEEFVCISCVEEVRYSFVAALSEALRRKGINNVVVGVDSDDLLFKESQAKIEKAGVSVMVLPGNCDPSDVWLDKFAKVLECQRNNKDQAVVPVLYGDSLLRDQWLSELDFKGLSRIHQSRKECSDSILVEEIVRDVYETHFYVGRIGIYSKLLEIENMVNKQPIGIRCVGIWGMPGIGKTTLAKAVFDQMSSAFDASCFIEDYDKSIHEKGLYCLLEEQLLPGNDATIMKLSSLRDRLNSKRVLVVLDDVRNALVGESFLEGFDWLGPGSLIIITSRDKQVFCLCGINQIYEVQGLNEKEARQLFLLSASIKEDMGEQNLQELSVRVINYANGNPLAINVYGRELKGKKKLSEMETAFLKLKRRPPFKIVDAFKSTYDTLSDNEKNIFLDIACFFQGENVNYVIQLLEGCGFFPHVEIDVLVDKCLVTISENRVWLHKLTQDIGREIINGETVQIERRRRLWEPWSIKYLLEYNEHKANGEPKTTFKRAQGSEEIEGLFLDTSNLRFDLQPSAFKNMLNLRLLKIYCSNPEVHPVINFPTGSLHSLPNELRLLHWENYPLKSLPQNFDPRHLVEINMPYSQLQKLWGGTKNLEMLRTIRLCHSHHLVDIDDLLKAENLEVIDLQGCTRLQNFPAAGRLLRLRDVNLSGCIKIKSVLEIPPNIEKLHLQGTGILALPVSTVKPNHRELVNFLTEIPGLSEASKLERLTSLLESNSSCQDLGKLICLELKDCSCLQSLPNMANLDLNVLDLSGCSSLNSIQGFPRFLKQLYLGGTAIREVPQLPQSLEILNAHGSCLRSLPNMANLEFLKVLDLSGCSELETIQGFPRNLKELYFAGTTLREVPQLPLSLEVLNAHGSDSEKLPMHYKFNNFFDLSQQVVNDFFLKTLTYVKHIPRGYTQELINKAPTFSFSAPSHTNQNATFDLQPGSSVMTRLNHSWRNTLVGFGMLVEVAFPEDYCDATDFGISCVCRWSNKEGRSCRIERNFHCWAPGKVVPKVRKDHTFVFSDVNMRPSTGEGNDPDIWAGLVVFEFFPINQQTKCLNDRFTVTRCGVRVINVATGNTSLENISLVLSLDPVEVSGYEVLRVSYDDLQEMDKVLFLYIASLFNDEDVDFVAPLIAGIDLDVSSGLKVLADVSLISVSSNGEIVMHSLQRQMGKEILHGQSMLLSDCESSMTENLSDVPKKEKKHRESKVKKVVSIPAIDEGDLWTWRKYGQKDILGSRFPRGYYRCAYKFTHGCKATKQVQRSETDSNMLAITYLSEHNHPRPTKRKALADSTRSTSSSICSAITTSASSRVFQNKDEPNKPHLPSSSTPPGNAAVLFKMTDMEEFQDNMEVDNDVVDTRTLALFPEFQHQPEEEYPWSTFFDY
Description: co-IP; RRS1-His-Flag and RPS4-HA variants transiently co-expressed in N. benthamiana (48 h after agroinfiltration); extract in GTEN buffer (10% glycerol, 100 mM Tris-HCl pH 7.5, 1 mM EDTA, 150 mM NaCl) with 5 mM DTT, protease inhibitors, 0.2% Nonidet P-40; anti-FLAG M2 or anti-HA affinity gel, 2 h at 4°C; immunoblot. Background: In western blotting, separated proteins are transferred to a membrane and probed.

No constants are given. Whether binding was seen depends on the method and setting. In cells and extracts the contact can be indirect. Some results given as binding are weak or reduced against the parent protein; the word gives no strength. Sequences can lack the tags named with a protein.

B1: RPS4^WT-HA (protein, UniProt Q9XGM3 1-1217)
chain: METSSISTVEDKPPQHQVFINFRGADLRRRFVSHLVTALKLNNINVFIDDYEDRGQPLDVLLKRIEESKIVLAIFSGNYTESVWCVRELEKIKDCTDEGTLVAIPIFYKLEPSTVRDLKGKFGDRFRSMAKGDERKKKWKEAFNLIPNIMGIIIDKKSVESEKVNEIVKAVKTALTGIPPEGSHNAVVGALGNSNAGTSSGDKKHETFGNEQRLKDLEEKLDRDKYKGTRIIGVVGMPGIGKTTLLKELYKTWQGKFSRHALIDQIRVKSKHLELDRLPQMLLGELSKLNHPHVDNLKDPYSQLHERKVLVVLDDVSKREQIDALREILDWIKEGKEGSRVVIATSDMSLTNGLVDDTYMVQNLNHRDSLQLFHYHAFIDDQANPQKKDFMKLSEGFVHYARGHPLALKVLGGELNKKSMDHWNSKMKKLAQSPSPNIVSVFQVSYDELTTAQKDAFLDIACFRSQDKDYVESLLASSDLGSAEAMSAVKSLTDKFLINTCDGRVEMHDLLYKFSREVDLKASNQDGSRQRRLWLHQHIIKGGIINVLQNKMKAANVRGIFLDLSEVEDETSLDRDHFINMGNLRYLKFYNSHCPQECKTNNKINIPDKLKLPLKEVRCLHWLKFPLETLPNDFNPINLVDLKLPYSEMEQLWEGDKDTPCLRWVDLNHSSKLCSLSGLSKAEKLQRLNLEGCTTLKAFPHDMKKMKMLAFLNLKGCTSLESLPEMNLISLKTLTLSGCSTFKEFPLISDNIETLYLDGTAISQLPMNMEKLQRLVVLNMKDCKMLEEIPGRVGELKALQELILSDCLNLKIFPEIDISFLNILLLDGTAIEVMPQLPSVQYLCLSRNAKISCLPVGISQLSQLKWLDLKYCTSLTSVPEFPPNLQCLDAHGCSSLKTVSKPLARIMPTEQNHSTFIFTNCENLEQAAKEEITSYAQRKCQLLSYARKRYNGGLVSESLFSTCFPGCEVPSWFCHETVGSELEVKLLPHWHDKKLAGIALCAVVSCLDPQDQVSRLSVTCTFKVKDEDKSWVAYTCPVGSWTRHGGGKDKIELDHVFIGYTSCPHTIKCHEEGNSDECNPTEASLKFTVTGGTSENGKYKVLKCGLSLVYAKDKDKNSALETKYDMLIGKSFQETSEGVDGRVKKTKGKYVMPVEKNFQETTEGVDGRVNKKKKTRMDNGRPKKKQRSGRDDNQTRMQVELQEGNINSVIMHTVKNF
Take B1: the binding result is reported as “binds”.
